Test results from publication PMC11534337.
Results are given in words; binding and its absence hold for the method and conditions named. Binding seen in cells or lysates may run through a third protein. Some entries that bind do so weakly or less than the wild type. For some assays here: Tags and fused reporters may be left off the sequences shown.

Chains of the proteins cited; added tags and fusions are not shown.
UniProt Q63844: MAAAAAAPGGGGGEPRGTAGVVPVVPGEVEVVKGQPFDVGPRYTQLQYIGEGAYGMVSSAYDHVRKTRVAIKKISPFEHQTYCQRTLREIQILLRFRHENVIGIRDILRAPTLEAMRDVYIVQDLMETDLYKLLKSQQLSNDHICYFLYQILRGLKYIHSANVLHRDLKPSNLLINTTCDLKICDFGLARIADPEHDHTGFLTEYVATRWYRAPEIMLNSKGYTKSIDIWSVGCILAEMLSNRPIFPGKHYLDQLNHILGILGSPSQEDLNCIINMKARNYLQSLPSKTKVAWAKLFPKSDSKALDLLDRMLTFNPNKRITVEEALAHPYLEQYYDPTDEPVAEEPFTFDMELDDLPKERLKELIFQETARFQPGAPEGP
UniProt P28482: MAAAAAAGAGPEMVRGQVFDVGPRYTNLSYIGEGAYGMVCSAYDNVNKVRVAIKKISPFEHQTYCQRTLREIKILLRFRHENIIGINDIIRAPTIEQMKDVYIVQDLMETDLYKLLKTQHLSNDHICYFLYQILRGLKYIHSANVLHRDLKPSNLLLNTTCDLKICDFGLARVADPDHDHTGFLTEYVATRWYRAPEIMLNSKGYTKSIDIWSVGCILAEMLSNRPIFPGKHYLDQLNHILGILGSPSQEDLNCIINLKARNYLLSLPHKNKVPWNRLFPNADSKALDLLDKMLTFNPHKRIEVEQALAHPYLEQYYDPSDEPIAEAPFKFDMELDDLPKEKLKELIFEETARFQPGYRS
UniProt P26369: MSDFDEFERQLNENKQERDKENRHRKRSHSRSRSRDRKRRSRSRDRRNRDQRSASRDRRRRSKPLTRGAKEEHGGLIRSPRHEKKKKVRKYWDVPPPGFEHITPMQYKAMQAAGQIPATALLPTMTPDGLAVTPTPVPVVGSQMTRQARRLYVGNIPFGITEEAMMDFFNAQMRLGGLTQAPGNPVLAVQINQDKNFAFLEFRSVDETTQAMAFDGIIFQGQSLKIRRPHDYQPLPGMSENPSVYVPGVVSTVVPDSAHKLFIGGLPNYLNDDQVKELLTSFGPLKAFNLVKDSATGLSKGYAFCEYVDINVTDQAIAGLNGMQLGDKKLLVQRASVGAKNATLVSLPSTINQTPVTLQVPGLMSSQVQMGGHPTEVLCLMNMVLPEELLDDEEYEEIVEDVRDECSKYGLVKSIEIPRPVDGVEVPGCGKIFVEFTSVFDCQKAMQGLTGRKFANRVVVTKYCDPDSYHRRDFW
UniProt P27361: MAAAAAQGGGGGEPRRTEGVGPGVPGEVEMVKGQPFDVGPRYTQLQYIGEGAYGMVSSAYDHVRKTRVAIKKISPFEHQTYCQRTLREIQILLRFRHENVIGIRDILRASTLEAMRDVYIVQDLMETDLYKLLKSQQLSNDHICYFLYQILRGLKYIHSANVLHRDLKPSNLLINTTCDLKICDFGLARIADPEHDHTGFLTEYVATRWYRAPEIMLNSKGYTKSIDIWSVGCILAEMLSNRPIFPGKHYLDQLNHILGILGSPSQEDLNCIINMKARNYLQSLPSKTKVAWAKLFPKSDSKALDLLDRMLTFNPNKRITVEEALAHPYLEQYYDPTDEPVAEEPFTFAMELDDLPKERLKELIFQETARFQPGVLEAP
UniProt P63085: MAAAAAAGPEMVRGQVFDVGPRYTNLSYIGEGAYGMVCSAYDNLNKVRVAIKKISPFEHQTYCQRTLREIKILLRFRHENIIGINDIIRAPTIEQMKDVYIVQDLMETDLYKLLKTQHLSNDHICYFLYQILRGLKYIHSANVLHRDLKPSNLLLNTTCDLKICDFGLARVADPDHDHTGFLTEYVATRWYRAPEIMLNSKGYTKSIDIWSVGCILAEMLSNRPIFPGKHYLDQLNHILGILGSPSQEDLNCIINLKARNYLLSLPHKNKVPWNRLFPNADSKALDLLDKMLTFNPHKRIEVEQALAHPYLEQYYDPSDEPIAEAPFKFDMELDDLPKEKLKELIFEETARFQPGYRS

Assays:
Flag-SIRT4 WT = molecular target: T1, Flag-SIRT4 WT (UniProt Q9Y6E7); assay: co-IP; HK2 cells expressing Flag-SIRT4 proteins, with or without TGF-β1 (2 ng/ml, 12 hr); immunoprecipitated Flag-SIRT4 blotted with anti-ERK1/2 antibody
T1 sequence: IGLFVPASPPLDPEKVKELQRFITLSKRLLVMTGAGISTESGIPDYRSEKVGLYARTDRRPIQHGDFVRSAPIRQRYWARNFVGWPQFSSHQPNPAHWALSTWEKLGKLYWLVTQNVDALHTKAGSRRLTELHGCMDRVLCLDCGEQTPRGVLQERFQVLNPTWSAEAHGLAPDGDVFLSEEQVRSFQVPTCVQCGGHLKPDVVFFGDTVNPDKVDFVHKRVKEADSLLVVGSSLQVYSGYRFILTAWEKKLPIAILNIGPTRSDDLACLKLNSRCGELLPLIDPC

[1] = molecular target: T2, SIRT4 (mouse (endogenous in primary mouse TECs and mouse kidney)) (UniProt Q8R216); assay: co-IP; primary mouse TECs (WT) treated with TGF-β1; lysate in 20 mM Tris-HCl pH 8.0, 100 mM NaCl, 1 mM EDTA, 0.5% NP-40; IP with anti-SIRT4 antibody; endogenous proteins
T2 sequence: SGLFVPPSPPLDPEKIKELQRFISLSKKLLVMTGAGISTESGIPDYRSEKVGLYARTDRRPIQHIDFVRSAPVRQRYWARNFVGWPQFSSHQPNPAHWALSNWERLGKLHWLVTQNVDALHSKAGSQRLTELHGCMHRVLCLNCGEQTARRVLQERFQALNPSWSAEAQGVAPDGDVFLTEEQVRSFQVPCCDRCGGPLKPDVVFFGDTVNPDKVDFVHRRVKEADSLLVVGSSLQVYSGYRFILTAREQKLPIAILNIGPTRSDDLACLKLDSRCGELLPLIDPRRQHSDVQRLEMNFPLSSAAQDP

HA-Sirt4 [2] = molecular target: T3, HA-Sirt4 (UniProt Q8R216); assay: co-IP; WT TECs transfected with HA-Sirt4 and/or Flag-U2af2, then TGF-β1; IP with anti-SIRT4 antibody
T3 sequence: T2 sequence

HA-Sirt4 [3] = molecular target: T3, HA-Sirt4; assay: co-IP; WT TECs transfected with Flag-U2af2 WT and HA-Sirt4 under TGF-β1 stimulation (doses); IP with anti-HA antibody
[4] = molecular target: T2, SIRT4 (mouse (endogenous in primary mouse TECs and mouse kidney)); assay: co-IP; whole-kidney lysates of sham, uIRI and UUO mice; IP with anti-SIRT4 antibody; endogenous proteins

| binding (Flag-SIRT4 WT) | binding [1] | Substance | other results |
| --- | --- | --- | --- |
|  | binds | ERK1 (from UniProt Q63844 1-380) |  |
| binds |  | ERK2 (from UniProt P28482 1-360) |  |
|  | binds | U2AF2 (from UniProt P26369 1-475) | binding [4]: binds |

The next lines start with the substance.

| Substance | binding (Flag-SIRT4 WT) | binding [1] | other results |
| --- | --- | --- | --- |
| ERK1 (from UniProt P27361 1-379) | binds |  |  |
| ERK2 (from UniProt P63085 1-358) |  | binds |  |
| Flag-U2af2 WT (from UniProt P26369 1-475) |  |  | binding (HA-Sirt4 [2]): binds; binding (HA-Sirt4 [3]): binds |
